Data on one substance can be found in publication PMC12442634.

Chains of the proteins cited; added tags and fusions are not shown. Lines headed by an entry give the natural chain unless they say otherwise; changes in a name come on top.
UniProt P43235: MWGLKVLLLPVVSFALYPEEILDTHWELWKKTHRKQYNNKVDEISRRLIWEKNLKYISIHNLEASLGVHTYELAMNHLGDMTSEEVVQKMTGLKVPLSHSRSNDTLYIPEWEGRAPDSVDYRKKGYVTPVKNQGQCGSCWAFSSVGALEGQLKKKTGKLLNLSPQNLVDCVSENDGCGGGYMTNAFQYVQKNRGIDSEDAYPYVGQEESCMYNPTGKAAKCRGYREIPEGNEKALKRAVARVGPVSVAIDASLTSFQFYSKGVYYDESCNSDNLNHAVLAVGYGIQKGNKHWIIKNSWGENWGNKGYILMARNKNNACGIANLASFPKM
UniProt P84022: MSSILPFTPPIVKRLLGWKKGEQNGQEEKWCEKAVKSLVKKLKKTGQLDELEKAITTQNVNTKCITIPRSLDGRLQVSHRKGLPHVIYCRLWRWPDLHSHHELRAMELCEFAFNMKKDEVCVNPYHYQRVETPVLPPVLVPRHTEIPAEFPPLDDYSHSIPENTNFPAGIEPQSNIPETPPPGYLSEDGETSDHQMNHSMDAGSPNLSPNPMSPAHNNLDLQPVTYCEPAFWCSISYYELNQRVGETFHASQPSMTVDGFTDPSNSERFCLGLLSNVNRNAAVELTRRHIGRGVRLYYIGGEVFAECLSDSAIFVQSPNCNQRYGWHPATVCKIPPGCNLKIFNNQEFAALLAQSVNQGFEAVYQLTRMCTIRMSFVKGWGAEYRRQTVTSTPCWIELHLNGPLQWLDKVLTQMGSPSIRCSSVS

No constants are given. Whether binding was seen depends on the method and setting. Binding seen in cells or lysates may run through a third protein. Binding calls can cover weak binding; strength is not graded here.

In this test the target is recombinant Cathepsin K (rCTSK), His-tagged (UniProt P43235). Put plainly: co-IP; MRC-5 cells treated with or without TGF-β1 and rCTSK (0.1 µg/mL) for 24 h; precipitating antibody not told for this panel; only the target purified.

For the substance “phosphorylated SMAD3, endogenous in MRC-5 cells (from UniProt P84022 1-425)”, the binding result is given as “binds”.
